{"sequences": {"note": "By UniProt entry, the sequences of proteins in these tests, tags left out. Residues count along the entry.", "UniProt Q9SLY8, residues 30-424": "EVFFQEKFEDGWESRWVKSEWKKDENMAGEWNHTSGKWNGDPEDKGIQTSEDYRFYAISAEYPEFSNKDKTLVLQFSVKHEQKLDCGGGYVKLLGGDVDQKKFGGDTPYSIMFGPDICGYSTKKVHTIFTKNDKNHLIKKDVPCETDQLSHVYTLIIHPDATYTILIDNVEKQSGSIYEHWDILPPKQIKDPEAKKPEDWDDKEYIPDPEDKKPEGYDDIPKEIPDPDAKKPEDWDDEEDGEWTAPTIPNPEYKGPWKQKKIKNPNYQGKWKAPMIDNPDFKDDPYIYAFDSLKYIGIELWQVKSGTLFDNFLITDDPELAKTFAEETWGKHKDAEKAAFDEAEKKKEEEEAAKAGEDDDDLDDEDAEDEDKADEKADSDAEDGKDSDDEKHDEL"}, "source": "patent US20030200567A1", "binders": {"B1": {"name": "CRT-interacting polypeptide (CRTintP) (protein)", "chain": "MSEDASVGASSSTVKAGDDPEATIEINIKTLDSQVHKLRVKKNVPVLVLKEKIVEATGVPVDQQRLIFRGRVLKDDHLLSEYHLEDGYTLHLVARRAAAEGQHSSGTSDENTHANVNVAGNGLLGDISRSVRDILGSLGLATPGGMTNTTFSVPLTTAPKGANNVNGRTQPGNHAQPGFSILNHQIQVSQLQPAGSIPRNMVIPDSLTTLLEYINRMDQVLQNNGTPSVDTNTQQPPRSDDAYLNQRFPSPEVLVSVIERAQQLLGGSAASALSHLAQPIQRDSGTSDASIRSQIQNESAQLGVAMQHLGAMFLELGRTMMMLRMGPSPADAFVNAGSSVYINSAGPNPIMVQPSFQNTPPFGVSSIPVLGGISGAFGIVDPSRTSAVNTHGTSTTSGSSAGMTTASAGAVNEGRQNVERTQGGNPSATSMHGLPARTVIAAIPARSTAEAPNHVLSVILPVQVRSQVAMPNQSTVSQGSQTAVGGGSQPQASVGGVASIPSIVAQVTAQVANALSANQQGQVSSSAQNTVDQGSRSVTTNGVDNVDSLVSASTQLQNELSDSNNGRTSLNAQSLVAGAGISPSNTSDPNLASEDSSTENAPNIGSIQQHPEMEGIHADNVRKPSEESTTANLVGQITTTCTDDISVNRSAENSSQKNIPLDGVSAQSIKPSASSRSEPVGLGGGLQPKRRSRTAKPPGSSSDTGEVVNSSRISNSQNAVSMGQQVLQALASQNTNVNRSHVTDSPLPSTTSQFSGGMPPRRQGGEGQVDFGSMISSVLNNPAFGNLLSNVAEQTGMGSAGDLRNMVEECAQSPAIMDTMSNLVQNVDGSGRGQGGIDLSRMMQQMMPVVSQVLGGAGARPAGTNSGQSRLQPRRSDMRVDDASDYGNSQIDLHQAREHIEQHDSPRDIFGAVLETAAQAYGEDESIEDMLEELVSDPELTDDYLKLLLQQVRQRIQSASQSGNQS"}}, "biological_target": "calreticulin (CRT) (rice) (UniProt Q9SLY8)", "test": "yeast two-hybrid, CRT bait against rice cultured-cell cDNA library", "note": "These are yes or no findings as the source states them, for the method shown. Some results given as binding are weak or reduced against the parent protein; the word gives no strength."}
{"binder": "B1", "values": [{"measurement": "binding", "value": "binds"}]}
